# The supplement of paper PMC8728848
# The other results are listed elsewhere or left out.
# Experiments:
# Test in all cases: glycan array binding signal (z-score within array); higher = stronger binding
# Settings in all cases: glycan notation: IUPAC condensed, linker removed
# Fuc(a1-3)GlcNAc = target: Fuc(a1-3)GlcNAc
# Summary of the method: (§1)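 The Consortium for Functional Glycomics database supplied 3228 glycan arrays, of which those lacking an available protein sequence were dropped. The binding signal, a within-array Z-score, was averaged across arrays of the same protein sequence and across linkers. Negative scores can be read as non-binding.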
# [1] = target: Fuc(a1-3)[Gal(b1-4)]Glc6S
# Summary of the method: as §1
# [2] = target: Fuc(a1-3)[Gal(b1-4)]GlcNAc
# Summary of the method: as §1
# [3] = target: Fuc(a1-3)[Gal(b1-4)]GlcNAc(b1-2)Man
# Summary of the method: as §1
# [4] = target: Fuc(a1-3)[Gal(b1-4)]GlcNAc(b1-2)Man(a1-3)[Fuc(a1-3)[Gal(b1-4)]GlcNAc(b1-2)Man(a1-6)]Man(b1-4)GlcNAc(b1-4)GlcNAc
# Summary of the method: as §1
# [5] = target: Fuc(a1-3)[Gal(b1-4)]GlcNAc(b1-2)Man(a1-3)[Fuc(a1-3)[Gal(b1-4)]GlcNAc(b1-2)Man(a1-6)]Man(b1-4)GlcNAc(b1-4)[Fuc(a1-6)]GlcNAc
# Summary of the method: as §1
# [6] = target: Fuc(a1-3)[Gal(b1-4)]GlcNAc(b1-3)Gal(b1-3)[Fuc(a1-4)]GlcNAc
# Summary of the method: as §1
# [7] = target: Fuc(a1-3)[Gal(b1-4)]GlcNAc(b1-3)Gal(b1-4)[Fuc(a1-3)]GlcNAc
# Summary of the method: as §1
# [8] = target: Fuc(a1-3)[Gal(b1-4)]GlcNAc(b1-3)Gal(b1-4)[Fuc(a1-3)]GlcNAc(b1-3)Gal(b1-4)[Fuc(a1-3)]GlcNAc
# Summary of the method: as §1
# [9] = target: Fuc(a1-3)[Gal(b1-4)]GlcNAc(b1-3)GalNAc
# Summary of the method: as §1
# [10] = target: Fuc(a1-3)[Gal(b1-4)]GlcNAc(b1-6)GalNAc
# Summary of the method: as §1
# [11] = target: Fuc(a1-3)[Gal(b1-4)]GlcNAc(b1-6)[Gal(b1-3)GlcNAc(b1-3)]Gal(b1-4)Glc
# Summary of the method: as §1
# [12] = target: Fuc(a1-3)[Gal(b1-4)]GlcNAc6S
# Summary of the method: as §1
# [13] = target: Fuc(a1-3)[Gal3S(b1-4)]Glc
# Summary of the method: as §1
# [14] = target: Fuc(a1-3)[Gal3S(b1-4)]GlcNAc
# Summary of the method: as §1
# [15] = target: Fuc(a1-3)[Gal3S(b1-4)]GlcNAc6S
# Summary of the method: as §1
# [16] = target: Fuc(a1-3)[GalNAc(b1-4)]GlcNAc
# Summary of the method: as §1
# [17] = target: Fuc(a1-3)[GalNAc(b1-4)]GlcNAc6S
# Summary of the method: as §1
# Fuc(a1-4)GlcNAc = target: Fuc(a1-4)GlcNAc
# Summary of the method: as §1
# Fuc(b1-3)GlcNAc = target: Fuc(b1-3)GlcNAc
# Summary of the method: as §1
# Gal(a1-2)Gal = target: Gal(a1-2)Gal
# Summary of the method: as §1
# Gal(a1-3)Gal = target: Gal(a1-3)Gal
# Summary of the method: as §1
# Gal(a1-3)Gal(b1-3)GlcNAc = target: Gal(a1-3)Gal(b1-3)GlcNAc
# Summary of the method: as §1
# [18] = target: Gal(a1-3)Gal(b1-3)GlcNAc(b1-2)Man
# Summary of the method: as §1
# [19] = target: Gal(a1-3)Gal(b1-3)GlcNAc(b1-2)Man(a1-3)[Gal(a1-3)Gal(b1-3)GlcNAc(b1-2)Man(a1-6)]Man(b1-4)GlcNAc(b1-4)GlcNAc
# Summary of the method: as §1
# [20] = target: Gal(a1-3)Gal(b1-3)GlcNAc(b1-3)GalNAc
# Summary of the method: as §1
# [21] = target: Gal(a1-3)Gal(b1-3)GlcNAc(b1-6)GalNAc
# Summary of the method: as §1
# [22] = target: Gal(a1-3)Gal(b1-3)[Fuc(a1-4)]GlcNAc(b1-2)Man(a1-3)[Gal(a1-3)Gal(b1-3)[Fuc(a1-4)]GlcNAc(b1-2)Man(a1-6)]Man(b1-4)GlcNAc(b1-4)GlcNAc
# Summary of the method: as §1
# Gal(a1-3)Gal(b1-4)Glc = target: Gal(a1-3)Gal(b1-4)Glc
# Summary of the method: as §1
# Gal(a1-3)Gal(b1-4)GlcNAc = target: Gal(a1-3)Gal(b1-4)GlcNAc
# Summary of the method: as §1
# [23] = target: Gal(a1-3)Gal(b1-4)GlcNAc(b1-2)Man
# Summary of the method: as §1
# [24] = target: Gal(a1-3)Gal(b1-4)GlcNAc(b1-2)Man(a1-3)[Gal(a1-3)Gal(b1-4)GlcNAc(b1-2)Man(a1-6)]Man(b1-4)GlcNAc(b1-4)GlcNAc
# Summary of the method: as §1
# [25] = target: Gal(a1-3)Gal(b1-4)GlcNAc(b1-3)GalNAc
# Summary of the method: as §1
# [26] = target: Gal(a1-3)Gal(b1-4)GlcNAc(b1-6)GalNAc
# Summary of the method: as §1
# [27] = target: Gal(a1-3)Gal(b1-4)[Fuc(a1-3)]GlcNAc
# Summary of the method: as §1
# [28] = target: Gal(a1-3)Gal(b1-4)[Fuc(a1-3)]GlcNAc(b1-2)Man(a1-3)[Gal(a1-3)Gal(b1-4)[Fuc(a1-3)]GlcNAc(b1-2)Man(a1-6)]Man(b1-4)GlcNAc(b1-4)GlcNAc
# Summary of the method: as §1
# Gal(a1-3)GalNAc = target: Gal(a1-3)GalNAc
# Summary of the method: as §1
binder,measurement,setting,value
"SspB C123 (Streptococcus gordonii), Q54186 (protein) MAHFHYSSLLAQPQINKEIKNEDGVDIDRTLVAKQSIGKFELKTEALTAGRPKTTSFVLVDPLPTGYKFDLDATKAASTGFDTTYDEASHTVTFKATDETLATYNADLTKPVETLHPTVVGRVLNDGATYTNNFTLTVNDAYGIKSNVVRVTTPGKPNDPDNPNNNYIKPTKVNKNKEGLNIDGKEVLAGSTNYYELTWDLDQYKGDKSSKEAIQNGFYYVDDYPEEALDVRPDLVKVADEKGNQVSGVSVQQYDSLEAAPKKVQDLLKKANITVKGAFQLFSADNPEEFYKQYVSTGTSLVITDPMTVKSEFGKTGGKYENKAYQIDFGNGYATEVVVNNVPKITPKKDVTVSLDPTSENLDGQTVQLYQTFNYRLIGGFIPQNHSEELEDYSFVDDYDQAGDQYTGNYKTFSSLNLTMKDGSVIKAGTDLTSQTTAETDATNGIVTVRFKEDFLQKISLDSPFQAETYLQMRRIAIGTFENTYVNTVNKVAYASAAALEHHHHHH",glycan array binding signal (z-score),Fuc(a1-3)GlcNAc,-1.31
same,glycan array binding signal (z-score),[1],0.242
same,glycan array binding signal (z-score),[2],-0.536
same,glycan array binding signal (z-score),[3],0.15
same,glycan array binding signal (z-score),[4],0.605
same,glycan array binding signal (z-score),[5],0.523
same,glycan array binding signal (z-score),[6],-0.194
same,glycan array binding signal (z-score),[7],-1.49
same,glycan array binding signal (z-score),[8],0.089
same,glycan array binding signal (z-score),[9],0.166
same,glycan array binding signal (z-score),[10],1.07
same,glycan array binding signal (z-score),[11],-0.974
same,glycan array binding signal (z-score),[12],1.33
same,glycan array binding signal (z-score),[13],1.18
same,glycan array binding signal (z-score),[14],0.073
same,glycan array binding signal (z-score),[15],0.017
same,glycan array binding signal (z-score),[16],0.959
same,glycan array binding signal (z-score),[17],-0.976
same,glycan array binding signal (z-score),Fuc(a1-4)GlcNAc,-0.101
same,glycan array binding signal (z-score),Fuc(b1-3)GlcNAc,-0.111
same,glycan array binding signal (z-score),Gal(a1-2)Gal,1.61
same,glycan array binding signal (z-score),Gal(a1-3)Gal,-0.024
same,glycan array binding signal (z-score),Gal(a1-3)Gal(b1-3)GlcNAc,-1.06
same,glycan array binding signal (z-score),[18],-0.562
same,glycan array binding signal (z-score),[19],1.52
same,glycan array binding signal (z-score),[20],0.045
same,glycan array binding signal (z-score),[21],-0.238
same,glycan array binding signal (z-score),[22],0.65
same,glycan array binding signal (z-score),Gal(a1-3)Gal(b1-4)Glc,-0.162
same,glycan array binding signal (z-score),Gal(a1-3)Gal(b1-4)GlcNAc,-1.14
same,glycan array binding signal (z-score),[23],-0.109
same,glycan array binding signal (z-score),[24],0.697
same,glycan array binding signal (z-score),[25],-0.133
same,glycan array binding signal (z-score),[26],-0.267
same,glycan array binding signal (z-score),[27],0.396
same,glycan array binding signal (z-score),[28],0.441
same,glycan array binding signal (z-score),Gal(a1-3)GalNAc,0.07

# Random excerpt: two records from the list
binder,measurement,setting,value
"SspB C123 (Streptococcus gordonii), Q54186 (protein) MAHFHYSSLLAQPQINKEIKNEDGVDIDRTLVAKQSIGKFELKTEALTAGRPKTTSFVLVDPLPTGYKFDLDATKAASTGFDTTYDEASHTVTFKATDETLATYNADLTKPVETLHPTVVGRVLNDGATYTNNFTLTVNDAYGIKSNVVRVTTPGKPNDPDNPNNNYIKPTKVNKNKEGLNIDGKEVLAGSTNYYELTWDLDQYKGDKSSKEAIQNGFYYVDDYPEEALDVRPDLVKVADEKGNQVSGVSVQQYDSLEAAPKKVQDLLKKANITVKGAFQLFSADNPEEFYKQYVSTGTSLVITDPMTVKSEFGKTGGKYENKAYQIDFGNGYATEVVVNNVPKITPKKDVTVSLDPTSENLDGQTVQLYQTFNYRLIGGFIPQNHSEELEDYSFVDDYDQAGDQYTGNYKTFSSLNLTMKDGSVIKAGTDLTSQTTAETDATNGIVTVRFKEDFLQKISLDSPFQAETYLQMRRIAIGTFENTYVNTVNKVAYASAAALEHHHHHH",glycan array binding signal (z-score),Gal(a1-3)Gal(b1-4)Glc,-0.162
same,glycan array binding signal (z-score),[17],-0.976
